Source: patent US20260027258A1, “Antimicrobial Compositions” (Matoke Holdings Limited, priority 2022, published 2026)
At least one compound was matched to its structure with a doubt left.

Test system: strains of Candida causing VVC
Assay: Yeast susceptibility testing, all Candida species tested (overall comparisons)
Type: cell-based
Settings: versus all of the gel concentrations
Procedure: AST was used to determine a Minimum Inhibitory Concentration (MIC) value for each antifungal agent on each strain of Candida. Three comparator drugs were also tested. This allowed the effectiveness of RO-101 gel to be compared to common antifungal drugs often used to treat VVC. Antifungal agents and their concentrations were as follows: RO-101 gel (1×, 2×, 10×, 20×: 1×=0.005%, 2×=0.01%, 10×=0.05% and 20×=0.1% Gox) (1 to 500 mg/L), SurgihoneyRO (1 to 500 mg/L), RO-101 gel 0% negative control (0% Gox) (1 to 500 mg/L), Fluconazole (0.125 to 64 mg/L), Itraconazole (0.015 to 8 mg/L) and Amphotericin (0.015 to 8 mg/L). The EUCAST E.DEF 7.3.2 (EUCAST, 2022a) method for yeast susceptibility testing was followed where possible.
Stock solutions of drugs were prepared with RPMI 1640 medium with 2% glucose. This was prepared by dissolving 20.8 g of RPMI 1640 powder (Sigma, Cat. No. R-6504), 69.1 g of morpholinopropanesulfonic acid (MOPS) (Melford, Cat. No. B2003) and 36 g of glucose (Sigma, Cat. No. G7528) in 800 ml of pharmacy water (Appleton Woods). 10M sodium hydroxide (Sigma, S8045) was added to adjust the pH to 7, and then the RPMI was filter sterilised. De Man, Rogosa & Sharpe (MRS) broth was used to grow the Lactobacillus isolates. MRS broth was prepared by dissolving 51 g of MRS powder (Sigma, 69966) in 1 litre of pharmacy water. 1 ml of Tween 80 (Sigma, P8074) was then added. […]

CCC(C)n1ncn(-c2ccc(N3CCN(c4ccc(OCC5COC(Cn6cncn6)(c6ccc(Cl)cc6Cl)O5)cc4)CC3)cc2)c1=O (stereo not shown) [Itraconazole]
MIC50, MIC90 and geometric means in comparison with RO-101 Gel: lower MIC50, MIC90 and geometric means than all of the gel concentrations
